# Results from the supplement of paper PMC10849652.
# Some of the results follow.
# Compound: CS(=O)(=O)N1CCN(Cc2cc3nc(-c4cccc5[nH]ncc45)nc(N4CCOCC4)c3s2)CC1 [pictilisib]
# Test: log2 fold change, soluble protein after heating vs DMSO (PISA); higher = thermal stabilisation; K562 lysate, 10 uM; active = over 0.2 and 3.5 SD of the protein, either way, in both replicates (recomputed)
# In short: (§1)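 K562 pellets were dounce-homogenised in PBS pH 7.4 with 1 mM MgCl2, and the crude extract at 1 mg/mL protein was treated with 10 μM compound for 30 min. Aliquots were heated for 3 min across 48°C-58°C, pooled, and brought to 0.5% NP-40 at 4°C; soluble protein was the supernatant after 21,000xg for 90 min. Soluble protein was quantified by TMTpro 16plex LC-MS/MS with channel sums equalised, and reported as log2 fold change in thermal stability against DMSO controls, with values from duplicates.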
row,Target,log2 fold change
1,PPP1R12B isoform 6 (UniProt O60237),inactive: 0.017
2,PRKCA (UniProt P17252),inactive: -0.021
3,PPP2CB (UniProt E5RHC1),inactive: -0.154
4,PPM1H (UniProt Q9ULR3),inactive: 0.016
5,PRADC1 (UniProt Q9BSG0),inactive: 0.091
6,PPP2R2D (UniProt Q66LE6),inactive: 0.029
7,PRMT7 (UniProt Q9NVM4),inactive: 0
8,PPP2R2A isoform 2 (UniProt P63151),inactive: -0.003
9,PPT1 (UniProt P50897),inactive: -0.028
10,PPP1CB (UniProt P62140),inactive: -0.014
11,PRPF6 (UniProt O94906),inactive: 0.009

# Compound: C[C@@H](Oc1cc(-c2cnn(C3CCNCC3)c2)cnc1N)c1c(Cl)ccc(F)c1Cl [crizotinib]
# Test: as above
# In short: as §1
row,Target,log2 fold change
1,PPP4R4 (UniProt Q6NUP7),inactive: -0.12
2,PRKCQ (UniProt Q04759),inactive: 0.038
3,PPP1R3D (UniProt O95685),inactive: 0.021
4,PPP5C (UniProt P53041),inactive: -0.002
5,PRMT9 (UniProt Q6P2P2),inactive: -0.007
6,PRKAR1B (UniProt P31321),inactive: 0.119
7,PRORP (UniProt O15091),inactive: -0.048
8,PRNP (UniProt P04156),inactive: -0.16
9,PRPF19 (UniProt Q9UMS4),inactive: 0.011
10,PPP2R5B (UniProt Q15173),inactive: 0.075
11,PRKD3 (UniProt O94806),inactive: -0.199
12,PPP6R1 (UniProt Q9UPN7),inactive: -0.06
13,PPP6C isoform 3 (UniProt O00743),inactive: 0.019
14,PRKACA (UniProt P17612),inactive: 0.022
15,PRKD2 isoform 3 (UniProt Q9BZL6),inactive: -0.043
16,PPP2R3B (UniProt Q9Y5P8),inactive: -0.048

row,Target,log2 fold change
1,PRKDC (UniProt P78527),inactive: -0.026
2,PRG4 (UniProt Q92954),inactive: -0.118
3,PPP1R13L (UniProt Q8WUF5),inactive: 0.045
4,PRMT1 (UniProt Q99873),inactive: -0.042
5,PROS1 (UniProt P07225),inactive: -0.047
6,PPP1R12B isoform 6 (UniProt O60237),inactive: -0.347
7,PRKCA (UniProt P17252),inactive: -0.019
8,PPP2CB (UniProt E5RHC1),inactive: -0.162
9,PPM1H (UniProt Q9ULR3),inactive: 0.021
10,PRADC1 (UniProt Q9BSG0),inactive: 0.075
11,PPP2R2D (UniProt Q66LE6),inactive: 0.053
12,PRMT7 (UniProt Q9NVM4),inactive: 0.025
13,PPP2R2A isoform 2 (UniProt P63151),inactive: 0.019
14,PPT1 (UniProt P50897),inactive: -0.013
15,PPP1CB (UniProt P62140),inactive: 0.02
16,PRPF6 (UniProt O94906),inactive: -0.06
